The record followed here is PMC12040169 (PLOS Biology, 2025).

The other results are listed elsewhere or left out.

This assay has as its system T1, CTL2-GFP (C. trachomatis L2/434/Bu, GFP-expressing).
T1 construct: L2/434/Bu, GFP-expressing
On the set-up: species or system HeLa; Intracellular C. trachomatis growth in HeLa cells, bulk GFP fluorescence relative to DMSO. As to conditions: bulk GFP, single well; 28.5 h, 10 µM; inhibitor.
Take `CN(C)C(=O)c1cccc(-c2cnc3[nH]c(=O)n(Cc4ccc(Cl)cc4)c3n2)c1` [CBK064553]: the “% of control remaining” value amounted to 204.822%.
On to `Cc1ccc(NC(=O)CSc2nnc(C(O)c3ccccc3)n2-c2ccccc2)c(Br)c1` (stereo not drawn) [CBK267421], for which the “% of control remaining” value worked out at 113.339%.
As for `Cc1ccc(-c2csc(NC(=O)CN3C(=O)CCC3=O)n2)cc1` [CBK287346], the figure is 134.54%; as for `COc1ccc2c(c1OC)C(=O)N1c3ccccc3COC21` (stereo not drawn) [CBK109960], 56.6834%; as for `Cc1cc(C[C@@H]2COC[C@H]2NCc2ccccc2Cl)on1` [CBK282969], 126.958%.
As for `O=C(CN1CCCCC1)Nc1sc2c(c1C(=O)Nc1ccccc1)CCCC2` [CBK267974], the figure is 99.0465%; as for `COC(=O)c1ccc(NC(=S)NC(=O)c2cncc(Br)c2)cc1` [CBK099257], 118.745%; as for `CCC(/C=C1\Sc2ccccc2N1CCCS(=O)(=O)[O-])=C\c1oc2ccc(OC)cc2[n+]1C` [CBK261080], 96.8057%.
The result for `CC(=O)Oc1cccc(NC(=O)CC2Sc3ccccc3NC2=O)c1` (stereo not drawn) [CBK261792] reads 113.377%; that for `COc1ccc2c(c1)C1(CC(=O)N(Cc3ccccc3)C1=O)C(=O)N2Cc1ccccc1` (stereo not drawn) [CBK075228], 110.679%; that for `Cn1/c(=N\C(=O)c2cccs2)sc2cc(Br)ccc21` [CBK018873], 162.846%.
Regarding `O=C(O)COc1ccc(NC(=O)c2ccc3c(c2)C(=O)N(C2CCCCC2)C3=O)cc1` [CBK266009], the “% of control remaining” value amounted to 213.741%.
Regarding `COc1cc(NC(=O)c2ccccc2)c(C(=O)O)cc1OC` [CBK227754], the “% of control remaining” value was 117.309%.
Turning to `CCN(CC)C(=O)N1CCN(Cc2cccc(OC)c2)C[C@@H]1C` [CBK284268], the “% of control remaining” value came to 84.9172%.
As for `Cc1c(C(=O)O)cccc1N1C(=O)c2ccc([N+](=O)[O-])cc2C1=O` [CBK262724], the figure is 74.9508%; as for `CS(=O)(=O)N(CC(=O)Nc1ccc(S(=O)(=O)N2CCCCCC2)cc1)c1ccc(F)cc1` [CBK266932], 155.237%.
The result for `Cn1ccc(C(=O)NC(Cc2cccs2)c2nccs2)n1` (stereo not drawn) [CBK285135] reads 108.892%; that for `Cn1ccnc1C1(O)C2CCCC1CN(Cc1ccccc1F)C2` (stereo not drawn) [CBK285206], 110.142%.
On to `Cc1cc(Cl)cc(Br)c1OCCNCCN1CCOCC1` [CBK268615G], for which the “% of control remaining” value was determined as 103.051%.
As for `COC(=O)CNC(c1cc(Br)ccc1N)c1ccccc1Cl` (stereo not drawn) [CBK262605], the figure is 100%; as for `CC(C)(CN)CN(Cc1ccccc1Br)C(=O)NCc1ccc(F)cc1` [CBK002469C], 115.505%.
